Results on 9 compounds are retold here after the supplement of paper PMC7889204.

The other results are listed elsewhere or left out. Most values come without repeats; read them as rough.

The test system of this experiment is C6. Description: cell mass (Coomassie absorbance) after combination of library compound with HMBA, relative to vehicle control (fraction); higher = more remaining cells (less growth inhibition).
On to `Cc1[nH]c(/C=C2\C(=O)Nc3ccccc32)c(C)c1CCC(=O)O` + CC(=O)NCCCCCCNC(C)=O [hexamethylene bisacetamide], for which the cell mass was determined as 0.657.
In the case of `CC(C)Cc1ccc(C(C)C(=O)O)cc1` (centres undefined) [Ibuprofen] + CC(=O)NCCCCCCNC(C)=O [hexamethylene bisacetamide], the cell mass turned out to be 0.647.
Take `CC(C)(C)Cn1c(N)nc2ccc(-c3[nH]c(C(C)(C)C)nc3-c3ccc(F)cc3)nc21` + CC(=O)NCCCCCCNC(C)=O [hexamethylene bisacetamide]: the cell mass was 0.544.
Take `C[C@H]1COC2=C1C(=O)C(=O)c1c2ccc2c1CCCC2(C)C` [Cryptotanshinone] + CC(=O)NCCCCCCNC(C)=O [hexamethylene bisacetamide]: the cell mass turned out to be 0.529.
Turning to `Fc1cc(-c2cccc3ncc(-c4cnn(C5CCNCC5)c4)nc23)cc(F)c1CN1CCOCC1` + CC(=O)NCCCCCCNC(C)=O [hexamethylene bisacetamide], the cell mass stood at 0.55.
As to `COc1cc2ncnc(-n3nc(-c4ccccn4)nc3N)c2cc1OC` + CC(=O)NCCCCCCNC(C)=O [hexamethylene bisacetamide], the cell mass turned out to be 0.583.
As to `O=C1NC(=O)/C(=C/c2ccc3c(c2)OC(F)(F)O3)S1` + CC(=O)NCCCCCCNC(C)=O [hexamethylene bisacetamide], the cell mass is 0.587.
On to `COc1cccc2cc(-c3nc([C@H]4CC[C@H](C(=O)O)CC4)n4ncnc(N)c34)[nH]c12` + CC(=O)NCCCCCCNC(C)=O [hexamethylene bisacetamide], for which the cell mass is 0.522.
In the case of `CC(C)C[C@H](NC(=O)[C@@H](O)[C@H](N)Cc1ccccc1)C(=O)O` [Ubenimex] + CC(=O)NCCCCCCNC(C)=O [hexamethylene bisacetamide], the cell mass is 0.578.
